Results deposited as PubChem BioAssay AID1259317 (Drosophila RNAi Screening Center, 2017)
In all, the deposit lists 418 reagents; below is a part drawn at random. In the full data, 34 (8.1%) got an active call. 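Hits are two-sided: raised or lowered ATP both count; higher z-score means more ATP and more surviving cells.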 Unmarked entries are inactive. Reagents against one gene are numbered here. The record does not give: the amount of reagent.

- Purpose: 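Membrane and organelle genes affecting manganese toxicity, judged by cellular ATP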 (primary screen)
- Cells: Drosophila S2R+ cells
- Reagent: long dsRNA against Drosophila genes
- Timing: 5 days (4 days knockdown, then 1 day metal)
- Treatment: manganese chloride added to 15 mM final for 1 day
- Measurement: 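Viability read as luminescent ATP after knockdown plus a day in 15 mM manganese chloride; z-score of the mean of three replicate plates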
- Direction: mean z-score, 3 replicates: higher = more ATP, more surviving cells under manganese
- Hit rule: 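a knockdown is active when its averaged z-score lies above 1.5 or below -1.5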
- Meaning of the calls: active = hit: z-score beyond ±1.5 (ATP up or down); inactive = not a hit

wat #1 — mean z-score, 3 replicates = 0.944
wat #2 — mean z-score, 3 replicates = -0.595
CG31661 #1 — mean z-score, 3 replicates = -0.533
CG31661 #2 — mean z-score, 3 replicates = -0.782
LManI #1 — mean z-score, 3 replicates = -0.0238
LManI #2 — mean z-score, 3 replicates = -0.161
LManI #3 — mean z-score, 3 replicates = 0.217
Abcd3 #1 — mean z-score, 3 replicates = -0.13
Abcd3 #2 — mean z-score, 3 replicates = 0.00831
Abcd3 #3 — mean z-score, 3 replicates = 0.502
hay #1 — mean z-score, 3 replicates = 0.565
hay #2 — mean z-score, 3 replicates = 2.7 (active)
hay #3 — mean z-score, 3 replicates = 1.3
LManII — mean z-score, 3 replicates = -0.0611
Vps16A #1 — mean z-score, 3 replicates = 0.563
Vps16A #2 — mean z-score, 3 replicates = -0.639
CG31926 #1 — mean z-score, 3 replicates = 0.0827
CG31926 #2 — mean z-score, 3 replicates = 0.359
CG7402 — mean z-score, 3 replicates = -0.532
AP-1-2beta #1 — mean z-score, 3 replicates = -1.69 (active)
AP-1-2beta #2 — mean z-score, 3 replicates = -0.909
AP-1-2beta #3 — mean z-score, 3 replicates = -0.289
Hexo2 — mean z-score, 3 replicates = -0.0228
Sod2 #1 — mean z-score, 3 replicates = 0.032
Sod2 #2 — mean z-score, 3 replicates = -0.393
Gba1a — mean z-score, 3 replicates = -0.432
CG10474 — mean z-score, 3 replicates = -0.976
Vha26 #1 — mean z-score, 3 replicates = 1.1
Vha26 #2 — mean z-score, 3 replicates = -0.98
Vha26 #3 — mean z-score, 3 replicates = 0.516
Arc42 #1 — mean z-score, 3 replicates = -0.114
Arc42 #2 — mean z-score, 3 replicates = 0.189
Arc42 #3 — mean z-score, 3 replicates = 2.14 (active)

Part of the list above in another layout.
{"gene":"Vps16A","dsRNA no.":1,"mean z-score, 3 replicates":0.563}
{"gene":"Vps16A","dsRNA no.":2,"mean z-score, 3 replicates":-0.639}
